Data from patent US20080027044A1, “Prodrug antibiotic screens” (priority 2006, published 2008).
For at least one compound, name, drawing or mass did not settle the structure.

Test system: P. aeruginosa
Experiment: Killing of logarithmic, stationary and biofilm cultures by bactericidal antimicrobials (colony count)
Type: cell-based
Details: all three cultures; in words
Protocol: Persister cells in planktonic and biofilm populations are characterized for their antibiotic sensitivity in this example. Several bactericidal antimicrobials were chosen to test the resistance of P. aeruginosa to killing—ofloxacin, a fluoroquinolone; tobramycin, an aminoglycoside; carbenicillin, a β-lactam; and peracetic acid, a disinfectant oxidant (Spoering et al. (2001) J. Bacteriol. 183:6746-6751). Biofilms were grown essentially by the method of Ceri (Ceri et al. (1999) J. Clin. Microbiol. 37:1771-1776) and as described in Brooun et al. (2000) Antimicrob. Agents Chemother. 44:640-646. The device used for biofilm formation is a platform carrying 96 polystyrene pegs that fit in a microtiter plate. Preformed biofilms were incubated in the presence of an antimicrobial agent, and survival was measured after disrupting the biofilms by colony count.
Carbenicillin is a bactericidal antibiotic that, similarly to most β-lactams, only kills rapidly growing cells (Tuomanen et al. (1986) Scand. J. Gastroenterol. Suppl:10-14). Logarithmic state, stationary and biofilm cultures were challenged with carbenicillin.
Unlike carbenicillin, ofloxacin can kill non-growing cells (Brooun et al. (2000) Antimicrob. Agents Chemother. 44:640-646). […] After a 6 hours incubation time with the antibiotic, viability was determined by colony count. […]

CC1COc2c(N3CCN(C)CC3)c(F)cc3c(=O)c(C(=O)O)cn1c23 (stereo not shown) [ofloxacin]
killing of logarithmic, stationary and biofilm cultures: majority of cells in the three populations examined were killed
